Results: PubChem BioAssay AID504834 (National Center for Advancing Translational Sciences (NCATS), 2011)
In all, about 320,000 compounds went through this assay and about 22,000 (6.9%) were called active. The shares of active, inactive and inconclusive entries below differ from those in the screen. Calls follow the shape of the dose curve; as a rule, active = well fitted inhibition curve with a large enough effect; inconclusive = small, poorly fitted or top-dose-only effect, or another doubt; inactive = no such curve, though single readings can be large or run the other way. Potencies of inconclusive entries are doubtful fits and often do not repeat.

assay: Primary qHTS for delayed death inhibitors of the malarial parasite plastid, 96 hour incubation; conditions: P. falciparum luciferase reporter growth; series mostly up to 28.7 µM; activity change, negative = inhibition: at the top concentration
How it was run: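 96 h incubation, 37 C, 5% CO2, of luciferase-reporter P. falciparum-infected RBCs (2% hematocrit, 0.05% parasitemia final) with test compounds; endpoint luminescence.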
% is scaled to controls: 0 for no effect and ±100 for the full control effect; potency is read from the fitted curve at half-maximal effect.

| SMILES | Potency | activity change, negative = inhibition |
| --- | --- | --- |
| CCn1ncc(C2=NOC(C(=O)NCc3ccc(OC)cc3)C2)c1C (configuration not stated) | inconclusive: 0.465 µM [inhibitor, full curve, poor fit] |  |
| COc1ccc([C@@H]2[C@@H]3C(=O)N(C(C)(C)C)C(=O)[C@@H]3[C@]3(C)C(=O)N(c4cccc(C)c4)C(=O)N23)cc1 |  | inactive: -14.7% |
| NS(=O)(=O)c1ccc(CNS(=O)(=O)Cc2ccc(Cl)cc2)cc1 | inconclusive: 18.5 µM [inhibitor, single point] |  |
| O=C1/C(=C/c2ccncc2)SC(=S)N1Nc1ccccc1 | active: 9.28 µM |  |
| CCOc1cc(/C=C2\C(=N)N3N=C(C)SC3=NC2=O)ccc1OCCOc1cccc(OC)c1 | inconclusive: 11.7 µM [inhibitor, partial curve, poor fit] |  |
| N/C(Cc1ccc(Cl)cc1Cl)=N\OC(=O)c1ccccc1 |  | inactive: 32% |
| Cc1ccc(C(=O)N/C(=C\c2ccc(-c3ccccc3[N+](=O)[O-])o2)C(=O)NCCCN2CCOCC2)cc1 | active: 2.94 µM |  |
| O=C(CNC(=O)c1ccccc1)N/N=C/c1cc(Br)ccc1O | inconclusive: 18.5 µM [inhibitor, single point] |  |
| COc1ccc(N2C(=O)NC(=O)/C(=C\c3cn(CC(=O)N4CCOCC4)c4ccccc34)C2=O)c(OC)c1 | inconclusive: 10.4 µM [inhibitor, single point] |  |
| CCOc1ccc(Cc2nc(N)nc(N)n2)cc1 | inconclusive: 14.7 µM [inhibitor, single point] |  |
| Cc1ccc(C(=O)CCC(=O)OC(C)C(=O)NC2CCCCC2C)cc1 (configuration not stated) | inconclusive: 8.28 µM [inhibitor, partial curve, poor fit] |  |
| COCCNc1oc(-c2ccc(C)cc2)nc1C#N | inconclusive: 10.4 µM [inhibitor, single point] |  |
| CCOC(=O)C1(Nc2nccs2)Sc2ccccc2NC1=O (configuration not stated) | inconclusive: 10.4 µM [inhibitor, single point] |  |
| CC1=CC(=O)c2c(O)ccc(O)c2C1=O | inconclusive: 1.47 µM [inhibitor, full curve, poor fit] |  |
| Oc1c(C=C2N=c3ccccc3=N2)sc(=S)n1C1CCCC1 | inconclusive: 18.5 µM [inhibitor, single point] |  |
| O=C(CSc1nc(-c2ccccc2)cc(C(F)(F)F)n1)c1cccc([N+](=O)[O-])c1 | inconclusive: 18.5 µM [inhibitor, single point] |  |
| O=C1CCc2cc(NS(=O)(=O)c3ccc(F)cc3)cc3c2N1CCC3 | inconclusive: 10.4 µM [inhibitor, partial curve, poor fit] |  |

Rewritten with bars between the fields: 2 of the compounds above.
SMILES | Potency | activity change, negative = inhibition
CCOc1cc(/C=C2\C(=N)N3N=C(C)SC3=NC2=O)ccc1OCCOc1cccc(OC)c1 | inconclusive: 11.7 µM [inhibitor, partial curve, poor fit] | 
COc1ccc(N2C(=O)NC(=O)/C(=C\c3cn(CC(=O)N4CCOCC4)c4ccccc34)C2=O)c(OC)c1 | inconclusive: 10.4 µM [inhibitor, single point] | 
